Format: physicochemical
Conditions: for Change of membrane affinity to DPPC monolayer on INH conjugation (conjugate vs native peptide): 20 mN/m, 2 µM, 1 h; for Degree of penetration (ΔΠ), increase of surface pressure: DPPC monolayer compressed to 20 mN/m, double-distilled water subphase, 2 µM peptide, after 1 h, accuracy ±0.5 mN/m

| Substance | Change of membrane affinity to DPPC monolayer on INH conjugation (conjugate vs native peptide) | Degree of penetration (ΔΠ), increase of surface pressure [mN/m] |
| --- | --- | --- |
| KRLFKKLLFSLRKY [Dhvar4, synthetic derivative of Histatin, a salivary histidine-rich cationic AMP] | penetration increased | – |
| RAGLQFPVGRVHRLLRK [Buforin II (5–21), antimicrobial peptide isolated from amphibians] | penetration increased | < 2 |
| TKPKGTKPKGTKPKGTKPKG [OT20, synthetic oligomer of Tuftsin, cationic carrier peptide] | slightly decreasing membrane affinity | < 2 |
| GIGKFLHSAKKFGKAFVGEIMNS [Magainin II, antimicrobial peptide isolated from amphibians] | – | > 4 |
| CM15 | slightly decreasing membrane affinity | > 4 |

Source: paper PMC7139830, “Drug Conjugation Induced Modulation of Structural and Membrane Interaction Features of Cationic Cell-Permeable Peptides” (International Journal of Molecular Sciences, 2020)
